Here are results for 42 sequences from PMC7819943, “Rice protein-binding microarrays: a tool to detect cis-acting elements near promoter regions in rice”.

The other results are listed elsewhere or left out.

The experiment concerns the target T1, OsSMF1 (Oryza sativa, UniProt Q6ZLB0 1-436).
T1 sequence: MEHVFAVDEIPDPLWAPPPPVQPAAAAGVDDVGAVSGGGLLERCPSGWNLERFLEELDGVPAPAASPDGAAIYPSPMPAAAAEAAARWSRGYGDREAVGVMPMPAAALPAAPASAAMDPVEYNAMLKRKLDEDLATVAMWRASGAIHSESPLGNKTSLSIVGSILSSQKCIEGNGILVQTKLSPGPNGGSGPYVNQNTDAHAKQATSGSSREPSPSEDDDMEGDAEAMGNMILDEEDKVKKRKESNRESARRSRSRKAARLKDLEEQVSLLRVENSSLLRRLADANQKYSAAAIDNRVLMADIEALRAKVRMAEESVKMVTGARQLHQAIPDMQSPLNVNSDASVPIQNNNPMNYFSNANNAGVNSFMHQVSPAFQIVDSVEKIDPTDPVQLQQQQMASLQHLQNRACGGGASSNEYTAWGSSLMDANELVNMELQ
Kind of experiment: protein-binding microarray (RPBM); PBS, 2% BSA, 51.3 ng/ul salmon testes DNA, 50 uM zinc acetate, 200 nM TF, 25 C, 1 h; high values mean tight binding. As to conditions: protein: recombinant; tags: N-terminal polyhistidine and DsRed monomer fusion (pET32a); chain copies: 2; label: CyDye5-dUTP incorporated in the synthesized complementary strand; 3' TTTTT single-stranded linker to array surface; dsDNA, one strand shown. Summed up: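 Transcription factors were made in E. coli BL21-CodonPlus as N-terminal fusions to a polyhistidine tag and DsRed, then purified on Ni–NTA. After primer extension with Cy5-dUTP and blocking with 2% BSA, a custom Agilent array was exposed for 1 h at 25 °C to 200 nM protein in PBS, 2% BSA, salmon testes DNA and 50 µM zinc acetate. Washed arrays were scanned on an Axon 4000B, and the binding signal is per-feature fluorescence intensity in arbitrary units.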
With “GAATATGTACGTGTGACTCCATCAGCAGTCACCTAGCCAGCGGAGTCACCTAGTGCAG”, the binding signal is 4360 fluorescence intensity (a.u.). For the sequence “CCTTGTTATAAGCCACACCACATCACACACCCCTCTCATTCGGAGTCACCTAGTGCAG”, the binding signal is 4520 fluorescence intensity (a.u.). For “TGGATGGAGGAGCGATCACCCACCCAATAGGAATTCCGGACGGAGTCACCTAGTGCAG”, the binding signal is 6100 fluorescence intensity (a.u.). As for “ACTCAGCCTCTCCAACGACGATGACGACACCGGCCAACATCGGAGTCACCTAGTGCAG”, the binding signal was 3880 fluorescence intensity (a.u.). For the sequence “AGCTCCTCCTTGGACGCGGCGATGACGCGCTTGCAGTCGTCGGAGTCACCTAGTGCAG”, the binding signal was 5680 fluorescence intensity (a.u.). The same measure for “CCAGAGGCCGCGAGCGGTGGCATCGTCATCGCAATATCAACGGAGTCACCTAGTGCAG”: 3760 fluorescence intensity (a.u.). As to “TGCCGTGGGATGGGGTTGCGGGAGGAGGAGGGTGCTACTACGGAGTCACCTAGTGCAG”, the binding signal is 3380 fluorescence intensity (a.u.). As to “TCTCCAGCGTCACCACGGCACGCAGTCACGCACCGCCCTCCGGAGTCACCTAGTGCAG”, the binding signal was 5450 fluorescence intensity (a.u.). In the case of “TAGAGGCATTTCGGTATGGGCATATGTGAGGAAAATTGGGCGGAGTCACCTAGTGCAG”, the binding signal is 3450 fluorescence intensity (a.u.). Regarding “CTTCGCCGTCTGACCCGTCAGCCACCATGCGCCGTCTCCGCGGAGTCACCTAGTGCAG”, the binding signal is 4500 fluorescence intensity (a.u.). Take “ATAAGTTATACTTAAAATACTTTTGATAATAAAACAAATCCGGAGTCACCTAGTGCAG”: the binding signal is 20400 fluorescence intensity (a.u.). The result for “ATCCAAGCCACGTCACCCTGATCTATCTAAACCCACCTTTCGGAGTCACCTAGTGCAG” reads 27500 fluorescence intensity (a.u.); that for “TCGTCGATGTCACCGCCACCACCGTCGTCATCGCTGCCTTCGGAGTCACCTAGTGCAG”, 3820 fluorescence intensity (a.u.). In the case of “TGCATCAATGGTGGCTTGGCTTTCATGTCGCTCCTTGTCGCGGAGTCACCTAGTGCAG”, the binding signal is 3140 fluorescence intensity (a.u.). As to “TAAAAGCCAAGCACCATCTCGAAGTCTTCTTCCTCCTCCACGGAGTCACCTAGTGCAG”, the binding signal was 12500 fluorescence intensity (a.u.). Take “GCTCGCCGTCTGCACGACCGTCGACTCGACGCGGTTGCTCCGGAGTCACCTAGTGCAG”: the binding signal is 36100 fluorescence intensity (a.u.).

Take “AGCCGTCCTCGTACGTACATAAATTAGCTGGCGAATCTGGCGGAGTCACCTAGTGCAG”: the binding signal was 3360 fluorescence intensity (a.u.). With “CGTGCTGTACTGCGTTACATGCAGCGTGACACGCTTGACCCGGAGTCACCTAGTGCAG”, the binding signal was 3160 fluorescence intensity (a.u.). On to “TAAGTACCAAAATGCCCCTAGACACGTATTGTTCTTCCTCCGGAGTCACCTAGTGCAG”, for which the binding signal was 6390 fluorescence intensity (a.u.). The result for “ACCTCGCCGCGCACCCCTCCCCTCCCCATGTCCTCGCCTTCGGAGTCACCTAGTGCAG” reads 4060 fluorescence intensity (a.u.). Turning to “CATGGCAAAATCGTGTCGACATATATGACCTGGGCACCCCCGGAGTCACCTAGTGCAG”, the binding signal is 4450 fluorescence intensity (a.u.). On to “GTTTCCGGGGTGACATGTGCATATATCACTTTTGGTTCCGCGGAGTCACCTAGTGCAG”, for which the binding signal is 3900 fluorescence intensity (a.u.). The same measure for “TAAACAATATATACCAATTTAATCAACGGTCGAGAAATACCGGAGTCACCTAGTGCAG”: 38300 fluorescence intensity (a.u.); for “TAATCATGGGCTTTTAATTCGGCCCAGTTAGGCAAATTTGCGGAGTCACCTAGTGCAG”: 3200 fluorescence intensity (a.u.). On to “TTTAGGGCTGATATAAGCTAATGTTGTTGTGAGTCATGGGCGGAGTCACCTAGTGCAG”, for which the binding signal is 7420 fluorescence intensity (a.u.). On to “TGAAGCAAGCACCCACATTTCACCATGACACCACCACCACCGGAGTCACCTAGTGCAG”, for which the binding signal is 3680 fluorescence intensity (a.u.). The same measure for “AATGGATCCTGGCCGGCCGTGTACATACGTCATAGGCCATCGGAGTCACCTAGTGCAG”: 4690 fluorescence intensity (a.u.); for “GCATTGGCGGGCCGCGCCGCGCGTGTAGACGTGCGGTCAGCGGAGTCACCTAGTGCAG”: 3160 fluorescence intensity (a.u.). The result for “GCGCCAGTAGCCACGGTGGCATCCAGAAGTCCACAGCGAGCGGAGTCACCTAGTGCAG” reads 3640 fluorescence intensity (a.u.); that for “TTTATTCTATTGTTTTGTTTATTTTCCTATGAGTCATCAGCGGAGTCACCTAGTGCAG”, 6600 fluorescence intensity (a.u.); that for “GCTTCCCCTCTACTCCTCTCCACGTTAGTTAGAGGGTACACGGAGTCACCTAGTGCAG”, 3520 fluorescence intensity (a.u.). As to “GGCGTGACAGTAAGGGAAGGGAATGAGAGATCCTATCATCCGGAGTCACCTAGTGCAG”, the binding signal is 11300 fluorescence intensity (a.u.). In the case of “CTTCAAGCTACCTTGCTTCTCCAGATCACTCTCTTTCAGCCGGAGTCACCTAGTGCAG”, the binding signal was 4180 fluorescence intensity (a.u.). For “AGAAAATATAGTGCCACGTTATATATCAGTCCATCAACACCGGAGTCACCTAGTGCAG”, the binding signal was 5780 fluorescence intensity (a.u.). For “GTCCCACATAAAAGTGACTCAGCTGATTAGGCCACGTCACCGGAGTCACCTAGTGCAG”, the binding signal was 24800 fluorescence intensity (a.u.). As to “ATTTGCGGATGTGTGAGTGTGACCAGTGATGTGTGCGGGACGGAGTCACCTAGTGCAG”, the binding signal is 5840 fluorescence intensity (a.u.). On to “CAATACATGAAAGTGAATCCTCTAACGTCGTGCAACTTATCGGAGTCACCTAGTGCAG”, for which the binding signal was 3280 fluorescence intensity (a.u.). The result for “TTTCTTCTTCGTCTCCGTCGCCTAGTCGGCTTCGCCTCCGCGGAGTCACCTAGTGCAG” reads 3200 fluorescence intensity (a.u.); that for “AAACGGAAGGGGAAACAGAGAGGGAAGGAGGAAGGGGAAGCGGAGTCACCTAGTGCAG”, 4600 fluorescence intensity (a.u.). Consider “ATTGATGTTACATGCCTCGCAAGCGATGACACGGCAAGCTCGGAGTCACCTAGTGCAG”, for which the binding signal is 5060 fluorescence intensity (a.u.).

In the case of “TATATATAAAACGTCAGCAACGGCATGACCATTCGAAAATCGGAGTCACCTAGTGCAG”, the binding signal is 5090 fluorescence intensity (a.u.).

For the sequence “TATAGCTTGGGCAATCTCTGTGTTTGCGTTTACCGAGATGCGGAGTCACCTAGTGCAG”, the binding signal is 3460 fluorescence intensity (a.u.).
